From PubChem BioAssay AID540276 (National Center for Advancing Translational Sciences (NCATS), 2011)
Out of some 300,000 compounds screened, about 5,400 (1.8%) were called active. This list was built around the results that the source calls inconclusive (neither active nor inactive); the mix of calls is not that of the screen. Calls come from the whole dose curve; tested in HEK293 cells. Potencies beside an inconclusive call are fits to weak or partial responses and may not hold up.

Assay: qHTS for inhibitors of binding or entry into cells for Marburg Virus
Settings: Marburg virus pseudotyped entry inhibition, cell reporter; activity change, negative = inhibition: at 37.8 µM (top of the series) unless noted
% is set by controls: 0 for no effect and ±100 for the full control effect; potency is the fitted concentration of half-maximal effect.

| SMILES | activity change, negative = inhibition | Potency |
| --- | --- | --- |
| c1ccc2sc(NC3=NCN(Cc4ccc5c(c4)OCO5)CN3)nc2c1 | inactive: -28.2% | – |
| COc1cccc2cc(-c3csc(NC(=O)CCC(=O)NCCCN4CCC(C)CC4)n3)c(=O)oc12 | – | inconclusive: 2 µM [inhibitor, full curve, poor fit] |
| Cn1cc(SCC(=O)NCc2ccc(F)cc2)c2ccccc21 | inactive: -10.3% [at 46.1 µM] | – |
| O=C(NC1(C(=O)NC2CCCCC2)CCCCC1)c1ccccn1 | inactive: 23.5% | – |
| Cn1cccc1/C=N/NC(=O)Cc1cccc2ccccc12 | – | inconclusive: 35.5 µM [inhibitor, partial curve, poor fit] |
| Cc1c(Cl)cnc(NC(=O)COC(=O)C(NC(=O)c2ccco2)C(C)C)c1Cl (stereo not given) | – | inactive |
| CCOC(=O)C1CCCN(c2nc3ccccc3nc2C(C#N)C(=O)NCc2ccccc2)C1 (stereo not given) | – | inconclusive: 14.1 µM [inhibitor, single point] |
| O=C(CCn1ccc2ccccc21)NC1CCCc2ccccc21 (stereo not given) | – | inconclusive: 35.5 µM [inhibitor, single point] |
| COc1ccccc1CCNC(=O)C(=O)Nc1cc2c3c(c1)CC(=O)N3CCC2 | inactive: 11.4% | – |
| Cc1ccsc1-c1nc(-c2ccccc2)c(-c2ccccc2)[nH]1 | inactive: -22.9% | – |
| Oc1ccc(-c2nc3ccccc3s2)c(O)c1 | – | inconclusive: 3.55 µM [activator, partial curve, poor fit] |
| COc1ccc(/C(C)=N\NC(=O)CSc2nnc(C)s2)cc1 | – | inconclusive: 12.6 µM [activator, single point] |
| S=C(Nc1ccc2nccnc2c1)N1CCOCC1 | – | inconclusive: 0.562 µM [activator, full curve, poor fit] |
| C[N+](C)(C)CCOC(=O)CCC(=O)OCC[N+](C)(C)C | – | inconclusive: 0.891 µM [inhibitor, full curve, poor fit] |
| Oc1ccc(/C=N/NC(=S)NC2CC3CCC2C3)cc1 (stereo not given) | – | inconclusive: 35.5 µM [inhibitor, single point] |
| COc1cc(CNc2ccc3[nH]c(=O)[nH]c3c2)cc(Cl)c1OCC(=O)NC(C)(C)C | – | inconclusive: 20 µM [inhibitor, partial curve, poor fit] |
| CC(=O)c1ccccc1OCC(O)CN1CCN(C(c2ccccc2)c2ccccc2)CC1 (stereo not given) | – | inconclusive: 35.5 µM [inhibitor, single point] |
| O=C(Nc1ccc(C(=O)NCc2ccc(F)cc2)cc1)C1=CSCCO1 | inactive: -24.1% [at 46.1 µM] | – |
| COc1ccccc1N1CCN(C(=O)c2cc(N3C(=O)C4C5CCC(C5)C4C3=O)ccc2Cl)CC1 (stereo not given) | inactive: 1.74% | – |
| O=C(C1CCN(Cc2ccc(F)cc2)CC1)N1CCN(C/C=C/c2ccccc2)CC1 | – | inconclusive: 20 µM [inhibitor, single point] |
| O=C(CSCc1ccc(Cl)cc1)Nc1ccc2c(c1)OCO2 | inactive: -2.21% [at 46.1 µM] | – |
| COc1ccc(C(=O)NC2CCCCCCC2)cc1OC | inactive: -9.88% | – |
| O=C(N/N=C/c1cccc(Br)c1)c1ccc(N2CCCC2=O)cc1 | – | inconclusive: 4.47 µM [inhibitor, partial curve] |
| O=C(COC(=O)C1CCC1)c1c[nH]c2ccccc12 | inactive: 7.23% [at 46.1 µM] | – |

| SMILES | activity change, negative = inhibition | Potency |
| --- | --- | --- |
| COc1ccc(OC)c(Cc2nnc(CCC(=O)N3CCCCCC3)o2)c1 | – | inconclusive: 7.94 µM [activator, partial curve] |
| Cc1cccc(NC(=O)CSc2cn[nH]n2)c1 | – | inconclusive: 3.16 µM [inhibitor, partial curve, poor fit] |
| Cc1ccc(S(=O)(=O)Cc2ccccc2Cl)cc1 | – | inconclusive: 2.24 µM [inhibitor, full curve] |
| Cc1oc(-c2ccccc2Cl)nc1CSCC(=O)N1CCCC1 | – | inconclusive: 0.184 µM [inhibitor, full curve, poor fit] |
| Cc1ccc(-c2cnc(NC(=O)c3cccc(Br)c3)s2)c(C)c1 | – | inconclusive: 29.1 µM [inhibitor, single point] |
| O=C(/C=C/c1ccccc1Cl)Nc1cccc(S(=O)(=O)NC2=NCCCCC2)c1 | – | inconclusive: 25.1 µM [inhibitor, single point] |
| CCn1c(COc2ccccc2C)nnc1SCC(=O)N1CCC(C)CC1 | – | inconclusive: 10.3 µM [inhibitor, single point] |
| O=S(=O)(NC1CCCCC1)c1ccc(F)c2ccccc12 | – | inconclusive: 29.1 µM [inhibitor, single point] |
| O=C(NC(Nc1ncc(S(=O)(=O)c2ccc([N+](=O)[O-])cc2)s1)(C(F)(F)F)C(F)(F)F)c1ccc(Cl)cc1 | – | active: 3.16 µM |
| CCOc1ccc(Oc2c(/C=N/NC(=O)C3CC3)c(C)nn2-c2ccccc2)cc1 | – | inconclusive: 3.98 µM [activator, partial curve, poor fit] |
| Cc1ccc(NC(=O)CSC2=C(C#N)C(c3ccco3)C3=C(CCCC3=O)N2)cc1 (stereo not given) | – | inconclusive: 12.6 µM [inhibitor, partial curve, poor fit] |
| CCCN(c1ccc(C(C)C)cc1)S(=O)(=O)c1ccc2c(c1)n(C)c(=O)c(=O)n2C | – | inconclusive: 15.8 µM [inhibitor, partial curve, poor fit] |
| CCC(=O)NC(Nc1sc2c(c1C(=O)OC)CCN(C)C2)(C(F)(F)F)C(F)(F)F | inactive: -17.8% | – |
| O=C(Nc1ccc(-n2cnnn2)cc1)c1cc(S(=O)(=O)N2CCCC2)ccc1Cl | – | inconclusive: 5.01 µM [inhibitor, full curve, poor fit] |
| C/C(N)=C(/C#N)C(=O)CSc1nc2ccccc2c(=O)n1Cc1ccc(C)cc1 | – | inconclusive: 35.5 µM [inhibitor, single point] |
| O=c1c(S(=O)(=O)c2ccc(Cl)cc2)cn(Cc2cccc(F)c2)c2ccc(F)cc12 | – | inconclusive: 11.2 µM [inhibitor, partial curve, poor fit] |
| COc1ccc([N+](=O)[O-])cc1Nc1ncnc2ccccc12 | inactive: -4.6% | – |
| COC(=O)c1ccccc1-c1c2ccc(=N)cc-2oc2cc(N)ccc12 | – | inconclusive: 10 µM [inhibitor, partial curve, poor fit] |
| COc1cc(/C=N/NS(=O)(=O)c2ccc(C)cc2)ccc1OCc1cccc(C(=O)O)c1 | – | inconclusive: 1.58 µM [inhibitor, full curve, poor fit] |
| Cc1ccc(S(=O)(=O)/N=C(/c2ccccc2)N2CCOCC2)cc1 | – | inconclusive: 22.4 µM [activator, partial curve, poor fit] |
| Fc1ccc(CNCCc2c[nH]c3ccccc23)cc1 | – | active: 10 µM |
| CCOc1ccccc1C(c1c(O)nc(SC)[nH]c1=O)c1c(O)nc(SC)[nH]c1=O | inactive: -1.99% [at 46.1 µM] | – |
| COc1ccc(CCCc2nnc(SCC(=O)Nc3nc(C)cs3)n2C)cc1C | inactive: 2.25% | – |
| Oc1ccccc1-c1nnc(SCCN2CCOCC2)n1Cc1ccccc1 | inactive: -28.5% | – |

Entries above that have an aryl thioether with sulfur outside any ring:

| SMILES | activity change, negative = inhibition | Potency |
| --- | --- | --- |
| Cn1cc(SCC(=O)NCc2ccc(F)cc2)c2ccccc21 | inactive: -10.3% [at 46.1 µM] | – |
| COc1ccc(/C(C)=N\NC(=O)CSc2nnc(C)s2)cc1 | – | inconclusive: 12.6 µM [activator, single point] |
| Cc1cccc(NC(=O)CSc2cn[nH]n2)c1 | – | inconclusive: 3.16 µM [inhibitor, partial curve, poor fit] |
| CCn1c(COc2ccccc2C)nnc1SCC(=O)N1CCC(C)CC1 | – | inconclusive: 10.3 µM [inhibitor, single point] |
| C/C(N)=C(/C#N)C(=O)CSc1nc2ccccc2c(=O)n1Cc1ccc(C)cc1 | – | inconclusive: 35.5 µM [inhibitor, single point] |
| CCOc1ccccc1C(c1c(O)nc(SC)[nH]c1=O)c1c(O)nc(SC)[nH]c1=O | inactive: -1.99% [at 46.1 µM] | – |
| COc1ccc(CCCc2nnc(SCC(=O)Nc3nc(C)cs3)n2C)cc1C | inactive: 2.25% | – |
| Oc1ccccc1-c1nnc(SCCN2CCOCC2)n1Cc1ccccc1 | inactive: -28.5% | – |

Next records follow.

| SMILES | activity change, negative = inhibition | Potency |
| --- | --- | --- |
| O=[N+]([O-])c1ccccc1/C=N/N1CCN(c2ccccn2)CC1 | – | inconclusive: 2.82 µM [activator, full curve, poor fit] |
| CCNc1ccc(C(=O)OCC)cc1NC(=O)c1cccc(N(C)C)c1 | – | inconclusive: 10.3 µM [inhibitor, partial curve, poor fit] |
| CCN1CCN(Cc2c(O)ccc3c2O/C(=C\c2ccccc2)C3=O)CC1 | inactive: -14.3% [at 46.1 µM] | – |
| Cc1ccsc1/C=N/N1CCN(c2ccccn2)CC1 | – | inconclusive: 3.16 µM [activator, partial curve, poor fit] |
| CCCC(=O)OCC(=O)Nc1ccc(N=Nc2ccccc2)cc1 | – | inconclusive: 0.651 µM [activator, full curve, poor fit] |
| c1ccc(-c2cn3ccccc3n2)cc1 | – | active: 11.2 µM |
| CC(C)OC(=O)c1cccc(C(=O)Oc2ccccc2)n1 | inactive: 16.5% | – |
| COc1ccc2c(c1)NC(c1ccc(N(C)C)cc1)c1cccn1-2 (stereo not given) | – | inconclusive: 3.98 µM [inhibitor, single point] |
| CN1CCN(CCNC(=O)Nc2ccccc2C(F)(F)F)CC1 | – | inconclusive: 35.5 µM [activator, single point] |
| COc1cc(/C=N/NC(=O)C(=O)N2CCCCCC2)ccc1O | inactive: 6.7% | – |
| Cc1ccccc1NC(=O)COC(=O)c1c[nH]c(=O)[nH]c1=O | – | inconclusive: 0.562 µM [activator, full curve, poor fit] |
| Cc1cc(NS(=O)(=O)c2ccc(NC(=O)COc3ccc(Cl)cc3Cl)cc2)no1 | – | inconclusive: 2 µM [activator, partial curve, poor fit] |
| CCOC(=O)c1c(NC(=S)Nc2ccccc2)sc2c1CCN(CC)C2 | inactive: -0.374% | – |
| O=C(c1cnc2sccn2c1=O)N1CCc2ccccc2C1 | – | inactive |
| COc1ccc(CNC(=O)COC(=O)CC2CC3CCC2C3)cc1OC (stereo not given) | inactive: 28.9% | – |
| C=C(C)C(O)C=Cc1ccc(Br)cc1 (stereo not given) | – | inconclusive: 0.015 µM [inhibitor, full curve, poor fit] |
| c1ccc(-n2ncc3c(NCc4ccco4)ncnc32)cc1 | – | inconclusive: 14.1 µM [inhibitor, partial curve, poor fit] |
| Cc1ccc(C(=O)OCC(=O)NCCC2=CCCCC2)cc1N | – | inconclusive: 35.5 µM [activator, single point] |
| Cc1ccc(Sc2ncnc3onc(C)c23)cc1 | – | inconclusive: 0.562 µM [inhibitor, full curve, poor fit] |
| CN(CC(O)COC(c1ccccc1)c1ccccc1)C1CCCCC1 (stereo not given) | – | inconclusive: 6.31 µM [inhibitor, full curve, poor fit] |
| Cc1cccc(N2CCN(C(=O)Cn3nc(C)c4sc5ccccc5c4c3=O)CC2)c1C | – | inconclusive: 3.55 µM [activator, single point] |
| Cc1ccc(C(=O)Nc2nn(C)c3cccc(F)c23)cc1 | – | inconclusive: 3.98 µM [activator, full curve] |

A portion from further up, as a working copy:

| SMILES | activity change, negative = inhibition | Potency |
| --- | --- | --- |
| Cc1ccc(C(=O)OCC(=O)NCCC2=CCCCC2)cc1N | – | inconclusive: 35.5 µM [activator, single point] |
| Cc1ccc(Sc2ncnc3onc(C)c23)cc1 | – | inconclusive: 0.562 µM [inhibitor, full curve, poor fit] |
